Results on 5 molecules are retold here after the supplement of paper PMC10032668.

Protein sequences, listed by entry. Tags and fused reporters are not part of them.
CD2AP, Q9Y5K6, UniProt Q9Y5K6, whole entry: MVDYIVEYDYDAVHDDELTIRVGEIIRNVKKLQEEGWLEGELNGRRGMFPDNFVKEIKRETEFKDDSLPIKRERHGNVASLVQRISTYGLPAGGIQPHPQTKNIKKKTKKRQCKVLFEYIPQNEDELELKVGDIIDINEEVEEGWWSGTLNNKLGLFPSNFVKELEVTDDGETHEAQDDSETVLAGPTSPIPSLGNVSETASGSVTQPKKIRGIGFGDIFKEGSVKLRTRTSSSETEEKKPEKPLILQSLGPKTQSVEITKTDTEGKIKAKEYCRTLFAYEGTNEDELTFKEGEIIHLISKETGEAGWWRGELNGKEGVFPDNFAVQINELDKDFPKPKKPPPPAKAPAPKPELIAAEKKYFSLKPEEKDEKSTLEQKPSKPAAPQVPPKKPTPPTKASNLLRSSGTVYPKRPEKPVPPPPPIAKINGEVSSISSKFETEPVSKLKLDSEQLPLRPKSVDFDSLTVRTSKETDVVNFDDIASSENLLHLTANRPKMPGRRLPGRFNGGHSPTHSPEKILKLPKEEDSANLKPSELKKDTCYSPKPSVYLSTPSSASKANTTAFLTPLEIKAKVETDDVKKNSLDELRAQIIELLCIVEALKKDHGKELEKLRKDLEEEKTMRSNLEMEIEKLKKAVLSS
NCAPD2, Q15021, UniProt Q15021, whole entry: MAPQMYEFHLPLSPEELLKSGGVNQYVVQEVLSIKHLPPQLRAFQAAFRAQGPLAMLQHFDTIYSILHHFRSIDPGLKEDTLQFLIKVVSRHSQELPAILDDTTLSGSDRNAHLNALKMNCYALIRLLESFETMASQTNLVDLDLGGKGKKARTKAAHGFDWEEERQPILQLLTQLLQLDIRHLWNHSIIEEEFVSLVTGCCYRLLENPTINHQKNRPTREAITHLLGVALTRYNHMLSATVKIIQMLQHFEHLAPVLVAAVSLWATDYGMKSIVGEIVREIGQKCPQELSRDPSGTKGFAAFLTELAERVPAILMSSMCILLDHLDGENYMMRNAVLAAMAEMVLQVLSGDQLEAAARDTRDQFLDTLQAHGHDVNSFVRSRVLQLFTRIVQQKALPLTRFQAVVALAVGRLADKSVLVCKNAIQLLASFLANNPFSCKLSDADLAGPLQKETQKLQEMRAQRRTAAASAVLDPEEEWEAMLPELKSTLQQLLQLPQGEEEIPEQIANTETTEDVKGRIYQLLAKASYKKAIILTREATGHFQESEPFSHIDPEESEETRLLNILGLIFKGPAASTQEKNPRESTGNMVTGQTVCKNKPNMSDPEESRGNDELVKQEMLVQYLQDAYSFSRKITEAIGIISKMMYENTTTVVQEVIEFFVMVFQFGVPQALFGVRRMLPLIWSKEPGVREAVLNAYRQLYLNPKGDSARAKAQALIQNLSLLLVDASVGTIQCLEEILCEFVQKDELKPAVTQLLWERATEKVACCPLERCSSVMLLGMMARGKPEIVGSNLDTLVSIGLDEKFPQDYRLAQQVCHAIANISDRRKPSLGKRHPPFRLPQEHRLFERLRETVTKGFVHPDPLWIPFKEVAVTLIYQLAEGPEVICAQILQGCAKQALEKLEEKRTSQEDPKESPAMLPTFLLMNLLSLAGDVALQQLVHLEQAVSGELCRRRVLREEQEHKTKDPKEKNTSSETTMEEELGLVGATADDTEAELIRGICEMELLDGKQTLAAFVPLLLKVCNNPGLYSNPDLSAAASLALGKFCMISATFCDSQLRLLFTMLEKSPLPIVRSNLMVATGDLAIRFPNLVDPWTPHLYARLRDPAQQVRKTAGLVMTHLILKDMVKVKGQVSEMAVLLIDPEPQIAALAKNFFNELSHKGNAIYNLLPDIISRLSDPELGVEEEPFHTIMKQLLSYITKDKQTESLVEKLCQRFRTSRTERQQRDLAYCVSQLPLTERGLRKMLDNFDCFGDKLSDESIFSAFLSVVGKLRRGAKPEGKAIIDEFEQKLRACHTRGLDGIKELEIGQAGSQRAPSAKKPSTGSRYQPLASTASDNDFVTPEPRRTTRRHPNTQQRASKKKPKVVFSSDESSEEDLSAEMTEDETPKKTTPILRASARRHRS
SNRNP200, O75643, UniProt O75643, whole entry: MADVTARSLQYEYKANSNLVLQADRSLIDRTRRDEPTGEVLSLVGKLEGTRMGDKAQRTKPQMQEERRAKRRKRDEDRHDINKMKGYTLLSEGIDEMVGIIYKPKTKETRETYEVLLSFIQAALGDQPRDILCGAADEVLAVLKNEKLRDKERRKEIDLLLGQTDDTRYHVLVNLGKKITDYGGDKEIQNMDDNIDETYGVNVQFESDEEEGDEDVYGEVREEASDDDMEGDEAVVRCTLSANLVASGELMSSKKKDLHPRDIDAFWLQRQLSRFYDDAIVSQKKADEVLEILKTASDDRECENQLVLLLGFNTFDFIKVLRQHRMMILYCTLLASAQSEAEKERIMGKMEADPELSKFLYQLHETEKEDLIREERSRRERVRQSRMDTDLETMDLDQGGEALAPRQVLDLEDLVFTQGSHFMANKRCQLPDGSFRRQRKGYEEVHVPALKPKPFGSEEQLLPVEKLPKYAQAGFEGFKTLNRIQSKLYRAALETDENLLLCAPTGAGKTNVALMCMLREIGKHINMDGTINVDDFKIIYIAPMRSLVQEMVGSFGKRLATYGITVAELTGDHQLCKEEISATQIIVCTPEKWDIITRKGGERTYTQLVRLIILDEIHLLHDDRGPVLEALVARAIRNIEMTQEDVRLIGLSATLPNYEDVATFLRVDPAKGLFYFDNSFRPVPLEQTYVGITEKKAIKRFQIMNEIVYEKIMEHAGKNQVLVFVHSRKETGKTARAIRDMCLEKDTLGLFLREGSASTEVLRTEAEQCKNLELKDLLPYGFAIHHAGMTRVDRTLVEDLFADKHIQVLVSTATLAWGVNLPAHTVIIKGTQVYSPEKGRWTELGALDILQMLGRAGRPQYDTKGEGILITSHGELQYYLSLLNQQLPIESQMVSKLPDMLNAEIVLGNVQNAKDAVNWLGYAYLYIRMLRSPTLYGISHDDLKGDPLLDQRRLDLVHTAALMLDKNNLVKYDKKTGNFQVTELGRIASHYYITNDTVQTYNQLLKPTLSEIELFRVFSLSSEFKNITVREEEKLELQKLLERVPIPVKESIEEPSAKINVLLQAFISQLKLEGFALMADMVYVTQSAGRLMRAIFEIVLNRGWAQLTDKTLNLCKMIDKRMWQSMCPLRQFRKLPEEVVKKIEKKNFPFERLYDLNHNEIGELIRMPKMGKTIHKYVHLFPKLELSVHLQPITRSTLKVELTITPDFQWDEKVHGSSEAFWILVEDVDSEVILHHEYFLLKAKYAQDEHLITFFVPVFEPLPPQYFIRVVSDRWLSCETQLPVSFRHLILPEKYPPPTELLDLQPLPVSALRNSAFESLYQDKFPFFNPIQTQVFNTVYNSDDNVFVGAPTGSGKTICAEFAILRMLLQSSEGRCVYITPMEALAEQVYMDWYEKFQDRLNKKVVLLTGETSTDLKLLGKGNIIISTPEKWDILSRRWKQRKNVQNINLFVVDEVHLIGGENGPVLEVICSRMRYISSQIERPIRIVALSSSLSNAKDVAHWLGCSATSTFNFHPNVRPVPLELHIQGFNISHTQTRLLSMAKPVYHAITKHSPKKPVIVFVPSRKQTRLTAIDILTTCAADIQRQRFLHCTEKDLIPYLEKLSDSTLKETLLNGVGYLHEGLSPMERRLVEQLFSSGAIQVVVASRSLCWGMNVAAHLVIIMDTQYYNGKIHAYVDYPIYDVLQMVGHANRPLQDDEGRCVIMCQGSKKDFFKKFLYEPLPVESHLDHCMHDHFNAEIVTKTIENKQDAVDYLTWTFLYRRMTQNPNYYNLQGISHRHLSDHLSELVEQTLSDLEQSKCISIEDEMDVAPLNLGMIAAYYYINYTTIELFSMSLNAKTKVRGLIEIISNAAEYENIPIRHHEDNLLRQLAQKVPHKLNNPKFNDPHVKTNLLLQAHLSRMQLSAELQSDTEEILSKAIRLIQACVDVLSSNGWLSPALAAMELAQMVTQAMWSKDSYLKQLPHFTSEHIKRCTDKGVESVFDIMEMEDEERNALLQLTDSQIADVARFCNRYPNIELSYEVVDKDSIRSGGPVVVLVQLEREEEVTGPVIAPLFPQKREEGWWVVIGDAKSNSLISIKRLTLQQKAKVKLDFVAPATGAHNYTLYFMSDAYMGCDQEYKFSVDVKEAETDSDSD
C3, P01024, UniProt P01024, whole entry: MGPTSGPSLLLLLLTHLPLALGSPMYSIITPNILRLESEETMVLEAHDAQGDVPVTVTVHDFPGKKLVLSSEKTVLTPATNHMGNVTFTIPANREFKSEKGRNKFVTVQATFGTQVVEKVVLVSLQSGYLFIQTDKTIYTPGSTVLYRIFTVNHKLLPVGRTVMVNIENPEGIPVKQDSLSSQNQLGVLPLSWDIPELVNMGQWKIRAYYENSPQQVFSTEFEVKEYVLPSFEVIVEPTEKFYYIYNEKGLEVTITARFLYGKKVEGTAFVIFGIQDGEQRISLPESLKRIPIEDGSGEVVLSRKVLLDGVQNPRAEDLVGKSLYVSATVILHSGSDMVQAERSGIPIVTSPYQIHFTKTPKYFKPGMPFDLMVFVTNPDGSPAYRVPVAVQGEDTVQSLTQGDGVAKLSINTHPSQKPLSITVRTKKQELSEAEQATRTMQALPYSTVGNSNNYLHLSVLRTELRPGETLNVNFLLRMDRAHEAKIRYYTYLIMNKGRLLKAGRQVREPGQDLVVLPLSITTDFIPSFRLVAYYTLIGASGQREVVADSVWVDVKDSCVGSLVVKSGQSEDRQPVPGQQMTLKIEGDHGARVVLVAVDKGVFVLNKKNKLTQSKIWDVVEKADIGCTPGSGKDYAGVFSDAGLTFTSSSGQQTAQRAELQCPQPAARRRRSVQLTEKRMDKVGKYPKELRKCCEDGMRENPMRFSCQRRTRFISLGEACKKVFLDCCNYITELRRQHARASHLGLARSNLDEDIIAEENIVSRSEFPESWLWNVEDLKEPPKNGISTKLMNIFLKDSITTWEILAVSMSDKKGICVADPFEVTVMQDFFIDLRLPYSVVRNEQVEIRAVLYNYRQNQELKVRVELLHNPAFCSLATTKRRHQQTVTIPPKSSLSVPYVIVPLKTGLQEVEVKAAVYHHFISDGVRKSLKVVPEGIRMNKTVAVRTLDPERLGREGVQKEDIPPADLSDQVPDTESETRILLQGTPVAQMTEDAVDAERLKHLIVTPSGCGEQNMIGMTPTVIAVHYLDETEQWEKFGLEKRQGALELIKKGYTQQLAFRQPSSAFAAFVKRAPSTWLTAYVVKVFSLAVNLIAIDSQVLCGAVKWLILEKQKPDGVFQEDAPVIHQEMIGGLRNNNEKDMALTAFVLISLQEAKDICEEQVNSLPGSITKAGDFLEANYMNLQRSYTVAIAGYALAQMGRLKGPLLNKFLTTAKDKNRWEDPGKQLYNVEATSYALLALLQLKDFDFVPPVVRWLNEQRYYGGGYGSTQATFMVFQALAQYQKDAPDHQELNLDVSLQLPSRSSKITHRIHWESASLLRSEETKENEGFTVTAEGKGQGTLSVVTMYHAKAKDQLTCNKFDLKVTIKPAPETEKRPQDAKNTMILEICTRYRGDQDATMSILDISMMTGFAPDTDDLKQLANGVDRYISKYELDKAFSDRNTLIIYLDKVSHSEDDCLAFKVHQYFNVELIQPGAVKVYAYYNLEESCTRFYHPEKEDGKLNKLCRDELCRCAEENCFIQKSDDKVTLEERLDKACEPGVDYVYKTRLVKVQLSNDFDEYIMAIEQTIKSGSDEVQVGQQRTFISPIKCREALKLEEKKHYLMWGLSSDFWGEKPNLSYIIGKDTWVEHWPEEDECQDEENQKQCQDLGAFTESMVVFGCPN
EIF3F, O00303, UniProt O00303, whole entry: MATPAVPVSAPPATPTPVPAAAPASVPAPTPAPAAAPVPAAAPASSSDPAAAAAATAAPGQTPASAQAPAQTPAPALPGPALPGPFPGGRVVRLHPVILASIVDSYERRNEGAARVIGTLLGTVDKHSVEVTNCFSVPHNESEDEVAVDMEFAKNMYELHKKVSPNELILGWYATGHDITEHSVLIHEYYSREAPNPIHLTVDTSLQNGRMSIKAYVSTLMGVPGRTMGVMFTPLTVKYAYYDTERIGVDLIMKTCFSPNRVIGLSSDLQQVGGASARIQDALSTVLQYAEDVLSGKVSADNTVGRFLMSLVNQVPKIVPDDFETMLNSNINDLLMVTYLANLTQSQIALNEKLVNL
GNAI2, P04899, UniProt P04899, whole entry: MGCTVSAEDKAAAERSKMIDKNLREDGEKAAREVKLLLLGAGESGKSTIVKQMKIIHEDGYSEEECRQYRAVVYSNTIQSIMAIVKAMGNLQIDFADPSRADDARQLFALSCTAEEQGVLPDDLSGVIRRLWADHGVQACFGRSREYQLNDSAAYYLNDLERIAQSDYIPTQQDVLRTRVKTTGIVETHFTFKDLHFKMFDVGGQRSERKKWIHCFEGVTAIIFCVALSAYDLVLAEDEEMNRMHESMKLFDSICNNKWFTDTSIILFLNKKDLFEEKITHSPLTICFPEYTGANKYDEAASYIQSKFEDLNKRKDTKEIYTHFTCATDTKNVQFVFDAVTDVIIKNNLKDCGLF

Holding throughout (assay): PRISMA enrichment of interactor (LFQ) in peptide spot vs all other peptide spots (log2 fold change); higher = stronger / more specific binding of the interactor to the peptide
Experiment [1] concerns the target AP3D1, O14617. As for the experimental part: (§1)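 PRISMA: 15-aa overlapping tiles (offset 8 aa) of 60 microproteins, plus SOS1/GLUT1 control peptides, were spot-synthesized on cellulose membranes in triplicate. Membranes were incubated with benzonase-treated HEK293T lysate, and bound proteins were identified by LC-MS/MS with LFQ. Enrichment is the log2 fold change of each protein in one spot versus all other spots. Only interactors passing the significance cutoff are listed.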

Experiment [2] deals with GEMIN2, O14893. The procedure: as §1
Experiment [3] has as its target RRP7A, Q9Y3A4. The procedure: as §1
Experiment [4] addresses TRRAP, Q9Y4A5. The procedure:
as §1

Experiment [5] has as its target UQCRC1, P31930. The procedure: as §1
Experiment [6] deals with AP3B1, O00203. The procedure:
as §1

In experiment [7] the target is DDX52, Q9Y2R4. The procedure:
as §1

In experiment [8] the target is EIF4E, P06730. The procedure: as §1
Experiment [9] has as its target FABP5, Q01469. As for the experimental part: as §1
Experiment [10] addresses FHOD1, Q9Y613. The procedure: as §1
Experiment [11] deals with GPD1L, Q8N335. The procedure: as §1
Experiment [12] deals with GSTK1, Q9Y2Q3. As for the experimental part:
as §1

For experiment [13], the target named is HIST1H1D, P16402. The procedure: as §1
Experiment [14] deals with IGF2BP3, O00425. The procedure: as §1
In experiment [15] the target is MRPL27, Q9P0M9. As for the experimental part: as §1
Experiment [16] addresses NOL6, Q9H6R4. The procedure: as §1
Experiment [17] concerns the target PEX11B, O96011. The procedure:
as §1

Experiment [18] concerns the target POLR2A, P24928. As for the experimental part: as §1
In experiment [19] the target is RACGAP1, Q9H0H5. As for the experimental part: as §1
For experiment [20], the target named is RP9, Q8TA86. As for the experimental part: as §1
For experiment [21], the target named is RPP38, P78345. The procedure:
as §1

The target in experiment [22] is RPUSD4, Q96CM3. As for the experimental part: as §1
Experiment [23] deals with SCRIB. As for the experimental part:
as §1

Experiment [24] addresses SERPINA1, P01009. The procedure: as §1
In experiment [25] the target is SMCHD1, A6NHR9. The procedure:
as §1

The target of experiment [26] is SMPD4, Q9NXE4. The procedure:
as §1

The target in experiment [27] is TMCO1, Q9UM00. The procedure:
as §1

Experiment [28] addresses ZGRF1, Q86YA3. The procedure: as §1
The target in experiment [29] is APOA4, P06727. As for the experimental part:
as §1

Experiment [30] addresses CD2AP, Q9Y5K6. As for the experimental part: as §1
Experiment [31] has as its target DNAJB12, Q9NXW2. As for the experimental part:
as §1

For experiment [32], the target named is DPM3, Q9P2X0. The procedure: as §1
Experiment [33] concerns the target FAM168A, Q92567. The procedure:
as §1

Experiment [34] concerns the target HNRNPUL1, Q9BUJ2. The procedure: as §1
Experiment [35] deals with MRPL34, Q9BQ48. The procedure: as §1
The target of experiment [36] is MRPS5, P82675. As for the experimental part: as §1
Experiment [37] has as its target NCAPD2, Q15021. The procedure: as §1
In experiment [38] the target is NSUN5, Q96P11. As for the experimental part: as §1
For experiment [39], the target named is NUP155, O75694. The procedure:
as §1

Experiment [40] deals with PHF3, Q92576. As for the experimental part:
as §1

In experiment [41] the target is PIK3C3, Q8NEB9. As for the experimental part: as §1
Experiment [42] concerns the target PYCR3, Q53H96. As for the experimental part:
as §1

Experiment [43] concerns the target RBL2, Q08999. The procedure:
as §1

Experiment [44] concerns the target RBM33, Q96EV2. As for the experimental part: as §1
For experiment [45], the target named is RMDN3, Q96TC7. As for the experimental part: as §1
Experiment [46] concerns the target SCO2, O43819. The procedure: as §1
Experiment [47] addresses SCYL1, Q96KG9. The procedure:
as §1

Experiment [48] concerns the target TRA2B, P62995. The procedure: as §1
Experiment [49] deals with TRIM32, Q13049. As for the experimental part:
as §1

The target in experiment [50] is TUBGCP3, Q96CW5. As for the experimental part:
as §1

For experiment [51], the target named is ZNF622, Q969S3. As for the experimental part:
as §1

The target of experiment [52] is API5, Q9BZZ5. The procedure:
as §1

The target of experiment [53] is CAMP, P49913. The procedure:
as §1

In experiment [54] the target is CPS1, P31327. The procedure: as §1
The target in experiment [55] is CSDE1, O75534. As for the experimental part: as §1
Experiment [56] deals with EIF1AD, Q8N9N8. The procedure: as §1
The target in experiment [57] is GNL1, P36915. As for the experimental part:
as §1

Experiment [58] concerns the target GRWD1, Q9BQ67. As for the experimental part:
as §1

Experiment [59] deals with LARP7, Q4G0J3. As for the experimental part:
as §1

The target in experiment [60] is NEK7, Q8TDX7. As for the experimental part:
as §1

Experiment [61] deals with PHF8, Q9UPP1. As for the experimental part:
as §1

The target of experiment [62] is SNRNP200, O75643. As for the experimental part:
as §1

Experiment [63] addresses SNRPF, P62306. As for the experimental part: as §1
In experiment [64] the target is SRSF9, Q13242. The procedure: as §1
For experiment [65], the target named is TMEM11, P17152. As for the experimental part: as §1
In experiment [66] the target is TRPT1, Q86TN4. As for the experimental part: as §1
In experiment [67] the target is UBAP2, Q5T6F2. As for the experimental part: as §1
Experiment [68] has as its target UBE2N, P61088. As for the experimental part: as §1
Experiment [69] deals with UTP11, Q9Y3A2. As for the experimental part: as §1
Experiment [70] deals with APOA1, P02647. The procedure:
as §1

For experiment [71], the target named is C3, P01024. As for the experimental part:
as §1

For experiment [72], the target named is DCUN1D5, Q9BTE7. As for the experimental part:
as §1

Experiment [73] addresses EIF3F, O00303. The procedure:
as §1

In experiment [74] the target is GNAI2, P04899. The procedure: as §1
Experiment [75] deals with HNRNPR, O43390. The procedure:
as §1

Experiment [76] concerns the target MAPRE1, Q15691. The procedure: as §1
The target of experiment [77] is MRPS25, P82663. As for the experimental part:
as §1

In experiment [78] the target is PSMC3, P17980. As for the experimental part: as §1
The target in experiment [79] is PSMD7, P51665. As for the experimental part:
as §1

For experiment [80], the target named is PTDSS1, P48651. The procedure: as §1
Experiment [81] has as its target RBM4, Q9BWF3. The procedure: as §1
Experiment [82] deals with YTHDC1, Q96MU7. As for the experimental part: as §1

Some of the results follow. The list holds hits alone, and they repeat only in part.

B1: MKKS_2 (peptide)
chain: LQRSAKQSVKFQSQS
For B1, the “PRISMA enrichment of interactor (log2)” value in [1] turned out to be 4.58; in experiment [2], 4.98; in experiment [3] it was 4.27; in [4], 5.7; in experiment [5] it was 4.24.

B2: IDI2-AS1 (peptide)
chain: ASLHGARLSPLSRNI
With B2, the “PRISMA enrichment of interactor (log2)” value in [6] was 4.6; in [7], 8.66; in experiment [8] it was 5.21; in [9], 5.41; in [10], 4.17; in experiment [11], 6.95. Further, the “PRISMA enrichment of interactor (log2)” value in experiment [12] stood at 4.45; in experiment [13], 5.94; in [14], 5.87; in [15] it was 8.85; in experiment [16], 4.93; in experiment [17], 7.07. Besides, the “PRISMA enrichment of interactor (log2)” value turned out to be 5.51 in experiment [18]; 4.04 in experiment [19]; 3.97 in [20]; 4.11 in experiment [21]; 5.09 in experiment [22]; 4.5 in [23]. For the same molecule, the “PRISMA enrichment of interactor (log2)” value was found to be 4.24 in [24]; 5.04 in experiment [25]; 4.54 in [26]; 5.33 in experiment [27]; 6.93 in experiment [28].

B3: IFRD1 (peptide)
chain: LFTGISAAATAHSYP
With B3, the “PRISMA enrichment of interactor (log2)” value in [29] came out at 4.38; in [30], 5.3; in experiment [31], 4.5; in [32] it was 3.92; in experiment [33] it was 4.53; in experiment [34] it was 6.1. The “PRISMA enrichment of interactor (log2)” value in experiment [35] amounted to 4.43; in [36] it was 6.59; in [37] it was 5.05; in [38], 4.74; in [39] it was 4.62; in experiment [40], 6.6. The “PRISMA enrichment of interactor (log2)” value was 4.1 in experiment [41]; 4.99 in [42]; 7.78 in experiment [43]; 4.57 in experiment [44]; 5.92 in experiment [45]; 5.67 in experiment [46]. Moreover, the “PRISMA enrichment of interactor (log2)” value in experiment [47] is 4.63; in [48], 5.76; in [49] it was 4.76; in experiment [50], 5.92; in experiment [51] it was 4.91.

B4: RP11-644F5.11 (peptide)
chain: IVLPLDARHVLGLGA
In the case of B4, the “PRISMA enrichment of interactor (log2)” value stood at 6.33 in experiment [52]; 6.42 in [53]; 5.17 in [54]; 4.83 in experiment [55]; 4.02 in experiment [56]; 4.8 in experiment [57]. Moreover, the “PRISMA enrichment of interactor (log2)” value turned out to be 6.07 in experiment [58]; 6.42 in [59]; 8.33 in [60]; 4.44 in [61]; 5.15 in experiment [62]; 4.74 in experiment [63]. In addition, the “PRISMA enrichment of interactor (log2)” value was 5.55 in experiment [64]; 8.59 in experiment [65]; 3.6 in experiment [66]; 4.73 in experiment [67]; 7.81 in [68]; 5.79 in experiment [69].

B5: ZEB2 (peptide)
chain: QLSLPTKIGGACFRV
In the case of B5, the “PRISMA enrichment of interactor (log2)” value in experiment [70] was found to be 4.33; in [71], 4.58; in [72], 4.56; in experiment [73] it was 4.98; in experiment [74], 4.8; in [75] it was 5.82. Besides, the “PRISMA enrichment of interactor (log2)” value was found to be 4.46 in [76]; 5.53 in [77]; 5.14 in experiment [78]; 6.57 in experiment [79]; 4.97 in experiment [80]; 5.06 in experiment [81]. For the same molecule, in experiment [82], the “PRISMA enrichment of interactor (log2)” value amounted to 5.81.
